Drawing on article PMC7862700, this text covers binding signal for 39 sequences.

Protein sequences, listed by entry. Tags and fused reporters are not part of them. Lines headed by an entry give the natural chain unless they say otherwise; changes in a name come on top.
UniProt O43186: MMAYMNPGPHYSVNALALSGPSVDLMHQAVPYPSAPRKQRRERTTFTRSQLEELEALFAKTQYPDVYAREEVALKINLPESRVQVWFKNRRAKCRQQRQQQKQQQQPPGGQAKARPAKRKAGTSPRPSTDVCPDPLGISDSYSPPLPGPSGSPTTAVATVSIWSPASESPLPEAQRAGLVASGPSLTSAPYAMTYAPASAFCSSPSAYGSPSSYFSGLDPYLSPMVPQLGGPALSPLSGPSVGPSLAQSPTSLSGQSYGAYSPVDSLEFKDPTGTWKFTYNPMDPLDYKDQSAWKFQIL

This is a selection; strong and weak results do not stand in their true shares. At the low end of the ranking, values are background and their order means little.

The test addresses CRX (UniProt O43186). The test is described as follows: DAPPL (digital affinity profiling via proximity ligation, sequencing). As to conditions: 10 mM Tris-HCl pH 7.5, 50 mM NaCl, 1 mM DTT, 4% glycerol, room temperature, 30 min; GST-TFs on glutathione beads, 16-mer random dsDNA library, 0.1% …; high values mean tight binding; double strand, one strand shown; scale: fold enrichment (6-mer frequency, TF over GST control).
CTGCGG had a binding signal of 0.835. With TGTTCC the figure was 1.21. On to ACCCGG, for which the binding signal was 0.755. CTGCTT returned a binding signal of 1.69. The figure for AGATGC is 0.976. ATAATG had a binding signal of 1.52. Turning to GTCCCG, the binding signal stood at 0.833.

Consider GCGTCT, for which the binding signal worked out at 0.929. With AACGGC the figure was 1.11; with TATCCA, 1.75. For TAACGG, the binding signal was found to be 1.21. As for TGATAT, the binding signal worked out at 1.08.

On to AATTAT, for which the binding signal was found to be 2.05. Consider AACTGA, for which the binding signal came out at 0.987. Consider TGTTTC, for which the binding signal was 1.17. The figure for AACTAC is 1.2. The figure for AGTGGC is 1.

On to GATGTT, for which the binding signal is 1.08. On to CGCCGC, for which the binding signal came out at 0.902. As for CCTTCA, the binding signal was found to be 1.34.

On to TCTATG, for which the binding signal is 1.11. The figure for CACAAG is 1.01. With CACCCC, the binding signal was found to be 0.93. GCCCCC: the binding signal is 0.845. The figure for AACACT is 1.14. AAGGCA: the binding signal was found to be 0.943.

Consider TGCCTC, for which the binding signal came out at 1.06.

Take ACAACT: the binding signal was determined as 1.02. In turn, CGTACA displayed a binding signal of 0.862.

As for CGTACC, the binding signal is 0.781. In turn, GCCTGA registered a binding signal of 0.961. Turning to AAGCGG, the binding signal is 1.11.

TTCGCA yielded a binding signal of 1.28. In the case of ACCCAA, the binding signal was 0.974.

The sequence CCCATC came in with a binding signal of 0.914. Turning to TTTTTG, the binding signal was found to be 1.31.

Take GAAAAA: the binding signal amounted to 0.945. In turn, ACTAGG registered a binding signal of 0.951. Take AGGTCT: the binding signal amounted to 1.21.
